Experiment [1] deals with endogenous β1 integrin of human lung fibroblasts (human (endogenous in primary human lung fibroblasts)) (UniProt P05556). The experiment is described as follows: proximity ligation; Duolink In Situ Red; fixed unpermeabilized human lung fibroblasts: IPF HLFs untreated or with 2 ng/ml TGF-β1 for 24 h, non-IPF HLFs with TGF-β1; anti-β1 integrin (mouse) and anti-galectin-3 (rabbit); signal means ≤40 nm.

The chains behind the UniProt entries cited, without tags or fusion partners. Where a name states a change or a piece, a line headed by the entry shows the natural chain unless it says otherwise. Residues count along the entry.
UniProt P05556: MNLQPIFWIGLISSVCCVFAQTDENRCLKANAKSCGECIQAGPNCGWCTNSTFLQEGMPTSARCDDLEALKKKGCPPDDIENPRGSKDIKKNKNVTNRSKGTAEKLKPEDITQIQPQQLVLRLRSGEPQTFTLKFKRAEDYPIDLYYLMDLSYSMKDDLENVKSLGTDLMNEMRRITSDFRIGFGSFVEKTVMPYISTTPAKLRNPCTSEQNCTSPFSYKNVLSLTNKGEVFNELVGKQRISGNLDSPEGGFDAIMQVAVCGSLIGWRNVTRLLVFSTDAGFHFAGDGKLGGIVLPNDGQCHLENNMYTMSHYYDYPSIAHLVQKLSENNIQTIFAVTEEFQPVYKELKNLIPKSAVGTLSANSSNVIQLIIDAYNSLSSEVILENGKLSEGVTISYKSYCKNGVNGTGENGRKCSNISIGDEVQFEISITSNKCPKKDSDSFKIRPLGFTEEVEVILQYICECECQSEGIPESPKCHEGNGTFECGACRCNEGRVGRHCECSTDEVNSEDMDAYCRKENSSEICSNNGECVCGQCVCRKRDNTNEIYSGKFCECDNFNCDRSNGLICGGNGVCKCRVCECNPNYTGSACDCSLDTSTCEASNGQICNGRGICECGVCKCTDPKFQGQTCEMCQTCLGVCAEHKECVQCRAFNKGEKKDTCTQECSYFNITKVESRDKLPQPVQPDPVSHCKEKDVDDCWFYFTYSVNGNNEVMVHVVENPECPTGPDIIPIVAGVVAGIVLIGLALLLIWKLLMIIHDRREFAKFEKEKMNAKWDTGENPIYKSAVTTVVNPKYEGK
UniProt P37173, residues 23-166: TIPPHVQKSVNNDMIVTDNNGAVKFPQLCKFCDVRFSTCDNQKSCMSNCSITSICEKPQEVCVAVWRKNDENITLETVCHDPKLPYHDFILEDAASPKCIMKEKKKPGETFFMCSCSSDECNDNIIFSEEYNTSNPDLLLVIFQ

Experiment [2] shares this target. The experiment in a line: co-IP; Pierce Crosslink IP Kit; whole-cell lysates (650 μg) of untreated non-IPF human lung fibroblasts; IP with anti-β1 integrin (P5D2) and blot for galectin-3, or IP with anti-galectin-3 (EPR19244) and blot for β1 integrin; IgG isotype controls.
Experiment [3] concerns the target endogenous galectin-3 of human lung fibroblasts (human (endogenous in primary human lung fibroblasts)) (UniProt P17931). The description is as above.
Experiment [4] addresses extracellular domain of the recombinant human TGFβRII protein (glycosylated) (human) (UniProt P37173). The experiment in a line: SPR; solution competition: glycosylated integrin or TGFβRII immobilised on CM5; 625 nM galectin-3 injected with 2-fold serial dilutions of the small molecules GB0139 or GB1107 (1.5% DMSO), 30 μl/min, 20 °C; responses normalised to DMSO control; both purified.

No constants are given. Whether binding was seen depends on the method and setting. For some of these results: Binding seen in cells or lysates may run through a third protein. Some binding calls cover weakened binding; strength is not graded here.

For “endogenous galectin-3 of human lung fibroblasts (from UniProt P17931 1-250)”, the binding entry in experiment [1] and in experiment [2] was “binds” throughout.
For “endogenous β1 integrin of human lung fibroblasts (from UniProt P05556 21-798) (receptor)”, in experiment [3], the binding entry is reported as “binds”.
Turning to “recombinant human galectin-3 (expressed and purified for SPR) (from UniProt P17931 1-250)”, in experiment [4], the binding entry is recorded as “binds”.

The values are drawn from PMC11134550.
